Laboratory results published in US20150239963A1.
These are yes or no findings as the source states them, for the method shown. Some binding calls cover weakened binding; strength is not graded here.

Amino acid sequences for entries named in this document (tags omitted). A change or cut given only in a name is not applied to a line headed by its entry. Chains listed by the source or under a name are the forms on record and can include a tag or linker.
UniProt P10636: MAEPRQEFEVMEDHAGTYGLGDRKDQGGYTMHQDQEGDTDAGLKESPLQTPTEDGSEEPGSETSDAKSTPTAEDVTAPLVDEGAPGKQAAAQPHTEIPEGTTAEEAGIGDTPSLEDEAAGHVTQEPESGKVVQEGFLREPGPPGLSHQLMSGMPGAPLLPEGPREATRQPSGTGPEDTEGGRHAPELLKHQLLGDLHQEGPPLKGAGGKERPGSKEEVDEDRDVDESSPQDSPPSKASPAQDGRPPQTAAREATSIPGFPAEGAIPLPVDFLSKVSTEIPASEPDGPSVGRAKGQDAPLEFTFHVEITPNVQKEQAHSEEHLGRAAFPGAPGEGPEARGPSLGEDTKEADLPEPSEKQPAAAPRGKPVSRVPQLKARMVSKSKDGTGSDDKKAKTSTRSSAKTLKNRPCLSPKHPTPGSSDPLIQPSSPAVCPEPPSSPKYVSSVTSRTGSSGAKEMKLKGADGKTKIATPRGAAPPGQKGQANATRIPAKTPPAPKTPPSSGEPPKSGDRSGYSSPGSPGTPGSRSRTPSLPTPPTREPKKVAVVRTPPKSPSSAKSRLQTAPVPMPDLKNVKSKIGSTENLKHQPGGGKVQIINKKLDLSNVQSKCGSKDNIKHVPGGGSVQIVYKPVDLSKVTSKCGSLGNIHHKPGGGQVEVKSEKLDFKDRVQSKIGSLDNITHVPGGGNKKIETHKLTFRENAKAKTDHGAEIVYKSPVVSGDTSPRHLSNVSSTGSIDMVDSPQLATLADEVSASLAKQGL
tau in AD brain lysates (P10636, form named): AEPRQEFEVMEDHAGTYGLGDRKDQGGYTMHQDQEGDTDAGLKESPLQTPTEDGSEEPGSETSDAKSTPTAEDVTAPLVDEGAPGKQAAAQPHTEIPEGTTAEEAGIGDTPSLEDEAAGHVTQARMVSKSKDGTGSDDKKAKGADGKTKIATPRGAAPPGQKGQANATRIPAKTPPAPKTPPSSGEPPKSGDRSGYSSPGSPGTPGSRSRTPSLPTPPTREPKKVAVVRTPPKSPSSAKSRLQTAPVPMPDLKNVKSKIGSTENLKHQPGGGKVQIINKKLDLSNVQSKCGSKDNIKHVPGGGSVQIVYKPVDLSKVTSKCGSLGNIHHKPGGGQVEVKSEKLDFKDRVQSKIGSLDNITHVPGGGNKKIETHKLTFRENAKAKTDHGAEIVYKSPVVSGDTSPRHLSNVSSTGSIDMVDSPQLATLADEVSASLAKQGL
tau in iPSC-CN lysates (P10636, form named): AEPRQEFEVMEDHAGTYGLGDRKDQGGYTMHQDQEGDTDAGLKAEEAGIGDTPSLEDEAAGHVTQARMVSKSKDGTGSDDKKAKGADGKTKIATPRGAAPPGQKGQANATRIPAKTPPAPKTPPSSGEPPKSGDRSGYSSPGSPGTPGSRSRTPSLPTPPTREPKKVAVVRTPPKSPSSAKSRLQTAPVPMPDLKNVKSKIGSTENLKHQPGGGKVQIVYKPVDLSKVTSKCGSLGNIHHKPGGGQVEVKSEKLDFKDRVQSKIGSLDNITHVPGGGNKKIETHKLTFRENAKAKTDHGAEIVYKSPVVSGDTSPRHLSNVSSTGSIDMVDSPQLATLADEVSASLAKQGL
tau of P301L tau transgenic mice (4R2N human tau mutated at P301L; brain cortex lysates, CSF) (P10636, form named): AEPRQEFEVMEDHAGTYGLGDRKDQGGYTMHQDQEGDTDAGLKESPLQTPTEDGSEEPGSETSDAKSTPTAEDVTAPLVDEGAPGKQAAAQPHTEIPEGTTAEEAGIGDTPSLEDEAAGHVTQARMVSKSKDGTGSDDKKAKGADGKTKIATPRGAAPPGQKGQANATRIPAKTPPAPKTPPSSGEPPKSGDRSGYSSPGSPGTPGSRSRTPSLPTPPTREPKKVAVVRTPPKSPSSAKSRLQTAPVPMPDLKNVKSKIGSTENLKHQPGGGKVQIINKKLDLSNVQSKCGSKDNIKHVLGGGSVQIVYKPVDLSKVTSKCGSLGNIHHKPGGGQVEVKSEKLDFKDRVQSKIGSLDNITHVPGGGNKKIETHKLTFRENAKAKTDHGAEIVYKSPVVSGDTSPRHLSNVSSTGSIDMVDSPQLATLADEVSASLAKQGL

Legend:
[1] = target: tau in AD brain lysates (human) (UniProt P10636); experiment: Western blot, AD brain lysates
[2] = target: tau in iPSC-CN lysates (human) (UniProt P10636); experiment: Western blot, iPSC-CN lysates
[3] = target: tau of P301L tau transgenic mice (4R2N human tau mutated at P301L; brain cortex lysates, CSF) (human) (UniProt P10636); experiment: Western blot, P301L tau mouse brain cortex lysates
[4] = target: tau of P301L tau transgenic mice (4R2N human tau mutated at P301L; brain cortex lysates, CSF) (human) (UniProt P10636); experiment: Western blot probed with the variant
[5] = target: tau in AD brain lysates (human) (UniProt P10636); experiment: Western blot probed with the variant
[6] = target: tau in iPSC-CN lysates (human) (UniProt P10636); experiment: Western blot probed with the variant
full-length phospho-tau [7] = target: full-length phospho-tau (UniProt P10636); experiment: sandwich ELISA: antibody coated on the well, full-length phospho-tau added at 0-100 ng/ml, detection with biotin-labeled non-competitive anti-tau antibodies (biotin-BT2 + biotin-HT7), streptavidin-HRP, raw OD
full-length phospho-tau [8] = target: full-length phospho-tau (UniProt P10636); experiment: sandwich ELISA, antibody coated, detection with biotin-BT2 + biotin-HT7
[9] = target: tau of P301L tau transgenic mice (4R2N human tau mutated at P301L; brain cortex lysates, CSF) (human) (UniProt P10636); experiment: Western blot probed with IPN001 of interstitial fluid

Measured: binding

B1: humanized IPN002 variant VH2/Vk1 (antibody, V domains shown)
VH: EVHLVESGGALVKPGGSLRLSCAASGFSFSKYGMSWVRQAPGKGLEWVATISSSGSRTYYPDSVKGRFTISRDNAKNTLYLQMNSLRAEDTAMYYCSISWDGAMDYWGQGTTVTVSS
VL: DVLMTQSPLSLPVTLGQPASISCKSSQSIVHSNGNTYLEWYLQKPGQSPQLLVYKVSNRFSGVPDRFSGSGSGTDFTLKISRVEAEDVGTYYCFQGSLVPWAFGGGTKVEIK
not listed: full-length phospho-tau [7] | full-length phospho-tau [8] | [9]
binds: all other assays above

B2: humanized IPN002 variant VH2/Vk2 (antibody, V domains shown)
VH: EVHLVESGGALVKPGGSLRLSCAASGFSFSKYGMSWVRQAPGKGLEWVATISSSGSRTYYPDSVKGRFTISRDNAKNTLYLQMNSLRAEDTAMYYCSISWDGAMDYWGQGTTVTVSS
VL: DVVMTQSPLSLPVTLGQPASISCKSSQSIVHSNGNTYLEWYLQKPGQSPQLLVYKVSNRFSGVPDRFSGSGSGTDFTLKISRVEAEDVGTYYCFQGSLVPWAFGGGTKVEIK
not listed: full-length phospho-tau [7] | full-length phospho-tau [8] | [9]
binds: all other assays above

B3: IPN002 (antibody, V domains shown)
VH: EVHLVESGGALVKPGGSLKLSCAASGFSFSKYGMSWVRQTPDKRLEWVATISSSGSRTYYPDSVKGQFTISRDNAKNTLYLQMSSLKSEDTAMYYCSISWDGAMDYWGQGTSVTVSS
VL: DVLMTQTPLSLPVSLGDQASISCKSSQSIVHSNGNTYLEWYLQKPGQSPKLLVYKVSNRFSGVPDRFSGSGSGTDFTLKISRVEAEDLGTYYCFQGSLVPWAFGGGTKLEIK
binds: full-length phospho-tau [7] | full-length phospho-tau [8]

B4: humanized IPN002 variant VH2/Vk3 (antibody, V domains shown)
VH: EVHLVESGGALVKPGGSLRLSCAASGFSFSKYGMSWVRQAPGKGLEWVATISSSGSRTYYPDSVKGRFTISRDNAKNTLYLQMNSLRAEDTAMYYCSISWDGAMDYWGQGTTVTVSS
VL: DVVMTQSPLSLPVTLGQPASISCKSSQSIVHSNGNTYLEWYLQKPGQSPQLLVYKVSNRFSGVPDRFSGSGSGTDFTLKISRVEAEDVGVYYCFQGSLVPWAFGGGTKVEIK
not listed: full-length phospho-tau [7] | full-length phospho-tau [8] | [9]
binds: all other assays above

B5: IPN001 (antibody, V domains shown)
VH: EVQLVESGEDLVKPGGSLKLSCVASGFAFSSYGMSWVRQTPDMRLEWVATISSSGSRTYFPDSVKGRLTISRDNDKNILYLQMSSLRSEDTAMYYCTITWDGAMDYWGRGISVTVSS
VL: DVLMTQTPLSLAVNLGDQASLSCRSSQTILHSNGNTYLEWYLQKPGQSPRLLIYKVSKRFSGVPDRFSGSGSGTDFTLKISRVEADDLGIYYCFQGSLVPWAFGGGTKLEIK
binds: [9]
